Assay results from article PMC5739603.
No constants are given. Whether binding was seen depends on the method and setting. For some of these results: Binding seen in cells or lysates may run through a third protein. Some entries that bind do so weakly or less than the wild type. For some of these results: Where a sequence is shown, tags or fusion partners need not be part of it.

Chains of the proteins cited; added tags and fusions are not shown.
UniProt P33993: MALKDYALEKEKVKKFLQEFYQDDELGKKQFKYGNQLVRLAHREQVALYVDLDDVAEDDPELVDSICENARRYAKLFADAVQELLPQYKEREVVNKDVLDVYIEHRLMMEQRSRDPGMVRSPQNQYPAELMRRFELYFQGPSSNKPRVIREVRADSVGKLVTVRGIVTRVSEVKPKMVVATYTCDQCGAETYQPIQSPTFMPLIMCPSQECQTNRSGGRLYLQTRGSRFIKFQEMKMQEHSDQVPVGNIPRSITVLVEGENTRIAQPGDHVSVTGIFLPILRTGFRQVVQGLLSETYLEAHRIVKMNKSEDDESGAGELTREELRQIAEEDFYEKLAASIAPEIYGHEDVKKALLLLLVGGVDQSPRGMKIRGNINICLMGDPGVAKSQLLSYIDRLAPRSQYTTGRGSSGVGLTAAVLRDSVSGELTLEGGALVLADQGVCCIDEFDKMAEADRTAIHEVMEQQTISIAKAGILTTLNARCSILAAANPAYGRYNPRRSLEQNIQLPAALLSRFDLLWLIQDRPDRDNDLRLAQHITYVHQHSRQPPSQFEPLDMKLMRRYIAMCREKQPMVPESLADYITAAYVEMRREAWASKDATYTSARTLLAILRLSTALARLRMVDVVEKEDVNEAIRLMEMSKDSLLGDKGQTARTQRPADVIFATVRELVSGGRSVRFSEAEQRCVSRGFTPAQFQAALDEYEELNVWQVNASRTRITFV

What was measured:
[1] = biological target: pBD-MCM7 (minichromosome maintenance complex component 7 fused to the bait domain) (UniProt P33993); experiment: two-hybrid; pBD-MCM7 as bait, pAD-lamin B2 as prey; growth on SD-Leu-Trp-His-Ade, beta-galactosidase assay
[2] = biological target: MCM7 (endogenous, A549) (human (endogenous in A549)) (UniProt P33993); experiment: co-IP; A549 cells with rising amounts (1, 2.5, 5 ug) of shLMNB2 or GFP-LMNB2; RB bound to MCM7 read by blot
Flag-MCM7 (full length) [3] = biological target: Flag-MCM7 (full length) (UniProt P33993); experiment: co-IP; lysates of A549 cells co-transfected with Flag-MCM7 and GFP-Lamin B2; IP with anti-GFP or anti-Flag, blot with GFP or FLAG antibody
[4] = biological target: MCM7 (endogenous, A549) (human (endogenous in A549)) (UniProt P33993); experiment: co-IP; A549 cell lysates (NP-40 lysis buffer), IP with anti-lamin B2 or anti-MCM7 antibody, protein G sepharose; endogenous proteins
Flag-MCM7 (full length) [5] = biological target: Flag-MCM7 (full length) (UniProt P33993); experiment: co-IP; A549 cells with FLAG-MCM7 (full length) or V5-ΔMCM7; lamin B2 of the lysate found by blot
Flag-MCM7 (full length) [6] = biological target: Flag-MCM7 (full length) (UniProt P33993); experiment: co-IP; A549 cells transfected with HA-RB and Flag-MCM7 or V5-ΔMCM7; IP with anti-Flag or anti-HA, blot with anti-HA, anti-FLAG or anti-V5

B1: pAD-lamin B2 (lamin B2 fused to the activation domain) (protein, UniProt Q03252 1-620)
chain: MSPPSPGRRREQRRPRAAATMATPLPGRAGGPATPLSPTRLSRLQEKEELRELNDRLAHYIDRVRALELENDRLLLKISEKEEVTTREVSGIKALYESELADARRVLDETARERARLQIEIGKLRAELDEVNKSAKKREGELTVAQGRVKDLESLFHRSEVELAAALSDKRGLESDVAELRAQLAKAEDGHAVAKKQLEKETLMRVDLENRCQSLQEELDFRKSVFEEEVRETRRRHERRLVEVDSSRQQEYDFKMAQALEELRSQHDEQVRLYKLELEQTYQAKLDSAKLSSDQNDKAASAAREELKEARMRLESLSYQLSGLQKQASAAEDRIRELEEAMAGERDKFRKMLDAKEQEMTEMRDVMQQQLAEYQELLDVKLALDMEINAYRKLLEGEEERLKLSPSPSSRVTVSRATSSSSGSLSATGRLGRSKRKRLEVEEPLGSGPSVLGTGTGGSGGFHLAQQASASGSVSIEEIDLEGKFVQLKNNSDKDQSLGNWRIKRQVLEGEEIAYKFTPKYILRAGQMVTVWAAGAGVAHSPPSTLVWKGQSSWGTGESFRTVLVNADGEEVAMRTVKKSSVMRENENGEEEEEEAEFGEEDLFHQQGDPRTTSRGCYVM
Q: Which binding [1] does the source give for B1 here?
A: Its binding is “binds”.

B2: GFP-Lamin B2 (protein, UniProt Q03252 1-620)
chain: B1 chain
Q: Which binding [2] does the source give for B2 here?
A: The binding was “binds”.

Q: What about the binding (Flag-MCM7 (full length) [3]) of the same binder?
A: Its binding is “binds”.

B3: lamin B2 (endogenous, A549) (protein, UniProt Q03252 1-620)
chain: B1 chain
Q: B3 was tested. Which binding [4] did it give?
A: Its binding is “binds”.

Q: And the binding (Flag-MCM7 (full length) [5])?
A: The binding was “binds”.

B4: HA-RB (retinoblastoma protein) (protein, UniProt P06400 1-928)
chain: MPPKTPRKTAATAAAAAAEPPAPPPPPPPEEDPEQDSGPEDLPLVRLEFEETEEPDFTALCQKLKIPDHVRERAWLTWEKVSSVDGVLGGYIQKKKELWGICIFIAAVDLDEMSFTFTELQKNIEISVHKFFNLLKEIDTSTKVDNAMSRLLKKYDVLFALFSKLERTCELIYLTQPSSSISTEINSALVLKVSWITFLLAKGEVLQMEDDLVISFQLMLCVLDYFIKLSPPMLLKEPYKTAVIPINGSPRTPRRGQNRSARIAKQLENDTRIIEVLCKEHECNIDEVKNVYFKNFIPFMNSLGLVTSNGLPEVENLSKRYEEIYLKNKDLDARLFLDHDKTLQTDSIDSFETQRTPRKSNLDEEVNVIPPHTPVRTVMNTIQQLMMILNSASDQPSENLISYFNNCTVNPKESILKRVKDIGYIFKEKFAKAVGQGCVEIGSQRYKLGVRLYYRVMESMLKSEEERLSIQNFSKLLNDNIFHMSLLACALEVVMATYSRSTSQNLDSGTDLSFPWILNVLNLKAFDFYKVIESFIKAEGNLTREMIKHLERCEHRIMESLAWLSDSPLFDLIKQSKDREGPTDHLESACPLNLPLQNNHTAADMYLSPVRSPKKKGSTTRVNSTANAETQATSAFQTQKPLKSTSLSLFYKKVYRLAYLRLNTLCERLLSEHPELEHIIWTLFQHTLQNEYELMRDRHLDQIMMCSMYGICKVKNIDLKFKIIVTAYKDLPHAVQETFKRVLIKEEEYDSIIVFYNSVFMQRLKTNILQYASTRPPTLSPIPHIPRSPYKFPSSPLRIPGGNIYISPLKSPYKISEGLPTPTKMTPRSRILVSIGESFGTSEKFQKINQMVCNSDRVLKRSAEGSNPPKPLKKLRFDIEGSDEADGSKHLPGESKFQQKLAEMTSTRTRMQKQKMNDSMDTSNKEEK
Q: B4 was tested. Which binding (Flag-MCM7 (full length) [6]) did it give?
A: Its binding is “binds”.

B5: RB (retinoblastoma protein) in A549 lysate (protein, UniProt P06400 1-928)
chain: B4 chain
Q: For B5, which binding [2] is on record?
A: The binding was “binds”.
